Activity change, negative = inhibition and Potency data for 65 compounds are collected here from PubChem BioAssay AID1671190 (National Center for Advancing Translational Sciences (NCATS), 2021).

Amino acid sequences for entries named in this document (tags omitted). A change or cut given only in a name is not applied to a line headed by its entry.
UniProt P18054: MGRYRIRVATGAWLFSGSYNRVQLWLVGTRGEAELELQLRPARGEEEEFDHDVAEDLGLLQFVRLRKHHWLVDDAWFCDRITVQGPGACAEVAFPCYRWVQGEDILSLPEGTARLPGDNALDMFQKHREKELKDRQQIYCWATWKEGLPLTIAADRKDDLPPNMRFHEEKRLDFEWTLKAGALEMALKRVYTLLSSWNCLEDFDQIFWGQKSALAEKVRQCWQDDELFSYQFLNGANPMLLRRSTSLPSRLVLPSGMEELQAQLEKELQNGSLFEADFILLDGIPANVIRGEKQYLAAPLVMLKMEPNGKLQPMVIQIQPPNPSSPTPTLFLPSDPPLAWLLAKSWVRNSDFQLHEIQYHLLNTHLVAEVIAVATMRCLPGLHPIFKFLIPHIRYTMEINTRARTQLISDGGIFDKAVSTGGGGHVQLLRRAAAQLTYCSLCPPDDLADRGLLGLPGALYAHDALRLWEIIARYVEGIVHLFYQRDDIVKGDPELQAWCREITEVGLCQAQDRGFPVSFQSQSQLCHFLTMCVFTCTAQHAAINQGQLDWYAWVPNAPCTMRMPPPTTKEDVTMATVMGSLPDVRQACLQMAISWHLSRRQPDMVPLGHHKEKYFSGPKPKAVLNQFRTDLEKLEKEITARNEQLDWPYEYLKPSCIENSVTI

The campaign covered roughly 580,000 compounds. About 6,100 (1.1%) were called active. Roughly 15% stayed inconclusive and do not appear here. The call rests on the fitted dose curve; in most records, active means well fitted inhibition curve with a large enough effect; inconclusive means small, poorly fitted or top-dose-only effect, or another doubt; inactive means no such curve, though single readings can be large or run the other way. Only a part is listed here, and it is no random draw. Where no call is shown, the source filed none.
On the % scale 0 is the no-effect control and ±100 the full control effect; potency means the concentration at half of the fitted maximal effect.

The target of this experiment is Polyunsaturated fatty acid lipoxygenase ALOX12 (Homo sapiens) (UniProt P18054). The experiment can be described thus: Primary qHTS assay for inhibitors of human arachidonate 12S-lipoxygenase (ALOX12): Round 2. The note with it: purified 12hLO, xylenol orange hydroperoxide absorbance; activity change, negative = inhibition: at 0.00344 µM (top of the series) unless noted. In outline: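 Purified human 12hLO (150 nM final) in 25 mM Hepes, 0.01% Triton X-100, pH 7.0 was preincubated 15 min at room temperature with compound. Then 40 uM arachidonic acid was added, 30 min. Hydroperoxide was read by Fe-XO absorbance ratio 573/405 nm.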
Consider `COc1cc(CC(C)N)cc2c1OCO2` (stereo not given), for which the activity change, negative = inhibition is -17.3% [at 0.00599 µM].

On to `CN1CCc2cc(Cl)c(O)cc2[C@H]2c3ccccc3CC[C@@H]21`, for which the activity change, negative = inhibition is 7.89%.

`CCN(CC)CCOC(=O)C(C)(c1ccccc1)c1ccccc1`: the activity change, negative = inhibition was found to be 4.12%.

`Cc1ccc(-c2nc3ccc(C)cn3c2CC(=O)N(C)C)cc1`: the activity change, negative = inhibition turned out to be 29.2%.

Take `CC(C)N(CCC(C(N)=O)(c1ccccc1)c1ccccn1)C(C)C` (stereo not given): the activity change, negative = inhibition is -4.01%.

Turning to `C=CCN1C[C@H](C)N([C@H](c2ccc(C(=O)N(CC)CC)cc2)c2cccc(OC)c2)C[C@H]1C`, the activity change, negative = inhibition was determined as 32.6%.

In the case of `N[C@@H](Cc1ccc(N(CCCl)CCCl)cc1)C(=O)O`, the activity change, negative = inhibition is 15.8%.

As to `Clc1cccc(CNCCc2c[nH]c3ccccc23)c1`, the Potency was active: 4.47 µM.

For `C[C@]12C=CC(=O)C=C1CC[C@@H]1[C@@H]2CC[C@@]2(C)[C@H]1CC[C@]2(C)O`, the activity change, negative = inhibition turned out to be 16%.

For the compound `COc1ccc(CN2CCNCC2)c(OC)c1OC`, the activity change, negative = inhibition is -6.76%.

For `CC(C)(N)Cc1ccc(Cl)cc1`, the activity change, negative = inhibition was -8.7%.

Consider `O=C(CCN1CCN(CCO)CC1)N1c2ccccc2Sc2ccc(C(F)(F)F)cc21`, for which the activity change, negative = inhibition stood at 18%.

Take `O=C1OC(CCN2CCCCC2)OC1(c1ccccc1)c1ccccc1` (stereo not given): the activity change, negative = inhibition came to 14.6%.

In the case of `Cc1cc(O)ccc1Cl`, the activity change, negative = inhibition was 50.4%.

As for `C#C[C@]1(O)C=C[C@H]2[C@@H]3CCC4=CC(=O)CC[C@@H]4[C@H]3CC[C@@]21CC`, the activity change, negative = inhibition was -8.43%.

In the case of `CCC1C(=O)OCC1Cc1cncn1C` (stereo not given), the activity change, negative = inhibition is 28.6%.

For `CN(C)C(=S)SSC(=S)N(C)C`, the activity change, negative = inhibition is 16.2%.

In the case of `C=CCN1C(=O)NC(=O)/C(=C\c2ccc(-c3ccccc3[N+](=O)[O-])o2)C1=O`, the Potency is active: 35.5 µM.

Regarding `Cc1ccc(S(=O)(=O)Oc2ccccc2C=C2C(=O)N(C)C(=O)N(C)C2=O)cc1`, the Potency is active: 44.7 µM.

On to `CN1C(=O)CN=C(c2ccccc2)c2cc([N+](=O)[O-])ccc21`, for which the activity change, negative = inhibition was found to be 25.4%.

As to `Cc1cc(Cc2c(O)[nH]c(=S)[nH]c2=O)ccc1OC(C)C`, the Potency is active: 20 µM.

As to `CC(CC(C(N)=O)(c1ccccc1)c1ccccc1)N(C)C` (stereo not given), the activity change, negative = inhibition amounted to 12.5%.

Consider `CCN(C(C)=O)c1cccc(-c2ccnc3c(C#N)cnn23)c1`, for which the activity change, negative = inhibition was -5.87%.

Regarding `CCC(COC(=O)c1cc(OC)c(OC)c(OC)c1)(c1ccccc1)N(C)C` (stereo not given), the activity change, negative = inhibition is 20%.

Consider `COc1cc(C[C@@H](C)N)c(OC)cc1Br`, for which the activity change, negative = inhibition was -26.5% [at 0.00599 µM].

On to `CCN(CC)C(=O)[C@@H]1C=C2c3cccc4[nH]cc(c34)C[C@H]2N(C)C1`, for which the activity change, negative = inhibition stood at 4.14% [at 0.0215 µM].

Regarding `Cc1cccc(C)c1NC1=NCCCS1`, the activity change, negative = inhibition is -0.395%.

Consider `Nc1ccc(N)cc1`, for which the activity change, negative = inhibition was -27.5%.

On to `Clc1ccc(C(OCCN2CCCCC2)c2ccccc2)cc1` (stereo not given), for which the activity change, negative = inhibition was -1.46%.

For `Nc1ccccc1`, the activity change, negative = inhibition was found to be 15.8%.

On to `CC[N+]1(CCOC(=O)C(O)(c2ccccc2)c2ccccc2)CCCCC1`, for which the activity change, negative = inhibition was -13.5%.

On to `C[N+]1(C)[C@@H]2CC[C@H]1CC(OC(=O)C(CO)c1ccccc1)C2` (stereo not given in full), for which the activity change, negative = inhibition is -20.7%.

In the case of `O=C(O)COc1ccccc1`, the activity change, negative = inhibition was -3.36%.

In the case of `Clc1ccc(CCC(Cn2ccnc2)Sc2c(Cl)cccc2Cl)cc1` (stereo not given), the activity change, negative = inhibition is 44.8%.

As to `CCC(=O)C(CCN(C)C)(c1ccccc1)c1ccccc1`, the activity change, negative = inhibition was -2.21%.

Turning to `C[N+](C)(C)CCOC(=O)C(O)(c1ccccc1)c1ccccc1`, the activity change, negative = inhibition is 0.866%.

As for `Oc1ccc(Cl)cc1`, the activity change, negative = inhibition is 1.03%.

For `CC(C)NC(C)C`, the activity change, negative = inhibition was 19.3%.

On to `O=c1[nH]c2ccccc2n1C1CCNCC1`, for which the activity change, negative = inhibition came out at 20.6%.

As for `O=C(O)c1ccc2[nH]cc(CCCCN3CC=C(c4ccccc4)CC3)c2c1`, the activity change, negative = inhibition was 29.7%.

In the case of `O=c1oc2ccccc2c(O)c1Cc1c(O)c2ccccc2oc1=O`, the activity change, negative = inhibition is 7.55%.

Take `O=C(O)CC[n+]1ccc(-c2cc[n+](CCC(=O)O)cc2)cc1`: the Potency was active: 14.1 µM.

Take `C[C@]12CC[C@@H]3c4ccc(OC(=O)N(CCCl)CCCl)cc4CC[C@H]3[C@@H]1CC[C@@H]2O`: the activity change, negative = inhibition was -8.19%.

As to `Clc1ccccc1CN1CCN(c2ccccc2)CC1`, the Potency was active: 0.891 µM.

In the case of `CC1N=C(N)OC1c1ccccc1` (stereo not given), the activity change, negative = inhibition was -1.87% [at 0.00599 µM].

In the case of `Cc1nc2ccccc2c(=O)n1-c1ccccc1Cl`, the activity change, negative = inhibition was 15.5% [at 0.00599 µM].

Turning to `COP(=S)(OC)Oc1ccc(S(N)(=O)=O)cc1`, the activity change, negative = inhibition is -24%.

As to `C#CC(O)(C=CCl)CC` (stereo not given), the activity change, negative = inhibition was determined as 5.03%.

As for `CC1NCCOC1c1ccccc1` (stereo not given), the activity change, negative = inhibition is -13.2%.

Turning to `CCC(C)(C)c1ccc(O)cc1`, the activity change, negative = inhibition is -15%.

As to `NCCc1ccc(O)cc1`, the activity change, negative = inhibition was -11%.

For the compound `CCc1cc(OC)c(C[C@H](C)N)cc1OC`, the activity change, negative = inhibition stood at 17.6% [at 0.00599 µM].

Consider `CNC(C)Cc1ccc2c(c1)OCO2` (stereo not given), for which the activity change, negative = inhibition is -1.25% [at 0.0105 µM].

`CNCC(=O)c1ccc(O)c(O)c1`: the activity change, negative = inhibition was 0.461%.

In the case of `CC(C)(C)NCC(O)c1cc(Cl)c(N)c(Cl)c1` (stereo not given), the activity change, negative = inhibition was -24.8%.

Consider `Fc1ccc(C(OCCN2CCN(CCCc3ccccc3)CC2)c2ccc(F)cc2)cc1`, for which the activity change, negative = inhibition is -16.9%.

`O=C(N/N=C/c1ccc([N+](=O)[O-])o1)c1cc([N+](=O)[O-])cc([N+](=O)[O-])c1O`: the activity change, negative = inhibition is -25.7%.

In the case of `C[C@H](CN1CCOCC1)C(C(=O)N1CCCC1)(c1ccccc1)c1ccccc1`, the activity change, negative = inhibition is -21.2% [at 0.0105 µM].

As for `CCC1(CC)C(=O)C=CNC1=O`, the activity change, negative = inhibition is -10.7%.

Regarding `CC1(C)C(C=C(Cl)Cl)C1C(=O)OC(C#N)c1cccc(Oc2ccccc2)c1` (stereo not given), the activity change, negative = inhibition was -19.9%.

As to `Oc1cc(Cl)ccc1Oc1ccc(Cl)cc1Cl`, the activity change, negative = inhibition was -1.53%.

In the case of `COc1cc(CC#N)cc(OC)c1OC`, the activity change, negative = inhibition was -3.53%.

Take `CC(C)=CCN1CC[C@@]2(C)c3cc(O)ccc3C[C@@H]1[C@@H]2C`: the activity change, negative = inhibition worked out at 32.1% [at 0.00599 µM].

`COc1ccc2c3c1O[C@H]1[C@H](O)CC[C@H]4[C@@H](C2)N(C)CC[C@@]341`: the activity change, negative = inhibition was -13.9% [at 0.00599 µM].

For `COP(=S)(OC)SCN1C(=O)c2ccccc2C1=O`, the activity change, negative = inhibition was -41.7%.
